Values from PubChem BioAssay AID1224828 (NIAID, 2016)
Shown is one part, drawn at random, of about 17,000 reagents tested. 762 of them (4.5%) were called active. 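Active calls include both raised and lowered p65 entry, mostly lowered; wells with fewer than 50 cells lack a z-score.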 Raw values are not corrected between plates. Entries without a mark were called inactive.

- Aim: 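Regulators linking TLR4 signalling to p65 nuclear translocation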 (primary screen)
- System: mouse RAW264.7 G9 macrophage reporter cells (GFP-p65, Tnf promoter-mCherry)
- Reagent: siRNA pool against mouse genes, 100 nM
- Duration: 2 days siRNA transfection, then 40 min LPS before fixation
- Treatment: LPS (Salmonella minnesota R595) at 10 ng/ml
- Detection: 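Microscopy ratio of nuclear to perinuclear-ring GFP-p65 signal, scaled to the plate median; gene score is the average of two replicate robust z-scores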
- Reading the numbers: p65 translocation robust z-score: higher = more nuclear NF-kappaB p65 after LPS than the plate median; nuclear/cytoplasmic p65 ratio: higher = more nuclear NF-kappaB p65
- Active means: 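Active if robust z is above 3.3 (negative regulators) or below -1.56, the Tlr4 control median (positive regulators); activity score 50 or more; control wells not called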
- Calls: active = hit (p65 shift raised or lowered); inactive = no clear change

Adtrp (androgen dependent TFPI regulating protein)
- nuclear/cytoplasmic p65 ratio, rep 1: 1.27
- nuclear/cytoplasmic p65 ratio, rep 2: 1.62
- low cell count flag: fewer than 50 cells per well; well left out of scoring

Casz1 (castor zinc finger 1)
- p65 translocation robust z-score: 0.05
- nuclear/cytoplasmic p65 ratio, rep 1: 1.55
- nuclear/cytoplasmic p65 ratio, rep 2: 1.85
- low cell count flag: enough cells to score

Tbc1d2 (TBC1 domain family, member 2)
- nuclear/cytoplasmic p65 ratio, rep 1: 1.21
- nuclear/cytoplasmic p65 ratio, rep 2: 1.69
- low cell count flag: fewer than 50 cells per well; well left out of scoring

Rabac1 (Rab acceptor 1 (prenylated))
- p65 translocation robust z-score: 1.91
- nuclear/cytoplasmic p65 ratio, rep 1: 1.74
- nuclear/cytoplasmic p65 ratio, rep 2: 1.83
- low cell count flag: enough cells to score

Map2k2 (mitogen-activated protein kinase kinase 2)
- p65 translocation robust z-score: -0.43
- nuclear/cytoplasmic p65 ratio, rep 1: 1.79
- nuclear/cytoplasmic p65 ratio, rep 2: 1.32
- low cell count flag: enough cells to score

Lalba (lactalbumin, alpha)
- nuclear/cytoplasmic p65 ratio, rep 1: 1.52
- nuclear/cytoplasmic p65 ratio, rep 2: 1.42
- low cell count flag: fewer than 50 cells per well; well left out of scoring

Ppp2r5c (protein phosphatase 2, regulatory subunit B', gamma)
- p65 translocation robust z-score: 0.5
- nuclear/cytoplasmic p65 ratio, rep 1: 1.53
- nuclear/cytoplasmic p65 ratio, rep 2: 1.5
- low cell count flag: enough cells to score

Cux2 (cut-like homeobox 2)
- p65 translocation robust z-score: -1.4
- nuclear/cytoplasmic p65 ratio, rep 1: 1.38
- nuclear/cytoplasmic p65 ratio, rep 2: 1.55
- low cell count flag: enough cells to score

C4a (complement C4A)
- p65 translocation robust z-score: 1.32
- nuclear/cytoplasmic p65 ratio, rep 1: 1.65
- nuclear/cytoplasmic p65 ratio, rep 2: 1.75
- low cell count flag: enough cells to score

The list goes on, starting with the last 3 of the part before.
Ppp2r5c (protein phosphatase 2, regulatory subunit B', gamma)
- p65 translocation robust z-score: 0.5
- nuclear/cytoplasmic p65 ratio, rep 1: 1.53
- nuclear/cytoplasmic p65 ratio, rep 2: 1.5
- low cell count flag: enough cells to score

Cux2 (cut-like homeobox 2)
- p65 translocation robust z-score: -1.4
- nuclear/cytoplasmic p65 ratio, rep 1: 1.38
- nuclear/cytoplasmic p65 ratio, rep 2: 1.55
- low cell count flag: enough cells to score

C4a (complement C4A)
- p65 translocation robust z-score: 1.32
- nuclear/cytoplasmic p65 ratio, rep 1: 1.65
- nuclear/cytoplasmic p65 ratio, rep 2: 1.75
- low cell count flag: enough cells to score

Col1a2 (collagen, type I, alpha 2)
- p65 translocation robust z-score: -0.79
- nuclear/cytoplasmic p65 ratio, rep 1: 1.3
- nuclear/cytoplasmic p65 ratio, rep 2: 1.33
- low cell count flag: enough cells to score

Snx15 (sorting nexin 15)
- nuclear/cytoplasmic p65 ratio, rep 1: 0.984
- nuclear/cytoplasmic p65 ratio, rep 2: 0.984
- low cell count flag: fewer than 50 cells per well; well left out of scoring

Or5ac19 (olfactory receptor family 5 subfamily AC member 19)
- p65 translocation robust z-score: -1.55
- nuclear/cytoplasmic p65 ratio, rep 1: 1.36
- nuclear/cytoplasmic p65 ratio, rep 2: 1.24
- low cell count flag: enough cells to score

Ccdc202 (coiled-coil domain containing 202)
- p65 translocation robust z-score: 0.95
- nuclear/cytoplasmic p65 ratio, rep 1: 1.43
- nuclear/cytoplasmic p65 ratio, rep 2: 1.37
- low cell count flag: enough cells to score

Txndc17 (thioredoxin domain containing 17)
- nuclear/cytoplasmic p65 ratio, rep 1: 1.33
- nuclear/cytoplasmic p65 ratio, rep 2: 1.19
- low cell count flag: fewer than 50 cells per well; well left out of scoring

Terf2ip (telomeric repeat binding factor 2, interacting protein)
- p65 translocation robust z-score: -0.25
- nuclear/cytoplasmic p65 ratio, rep 1: 1.46
- nuclear/cytoplasmic p65 ratio, rep 2: 1.51
- low cell count flag: enough cells to score

Uaca
- p65 translocation robust z-score: -0.04
- nuclear/cytoplasmic p65 ratio, rep 1: 1.34
- nuclear/cytoplasmic p65 ratio, rep 2: 1.22
- low cell count flag: enough cells to score

5330438I03Rik (RIKEN cDNA 5330438I03 gene)
- p65 translocation robust z-score: -0.55
- nuclear/cytoplasmic p65 ratio, rep 1: 1.29
- nuclear/cytoplasmic p65 ratio, rep 2: 1.39
- low cell count flag: enough cells to score

Clec1a (C-type lectin domain family 1, member a)
- p65 translocation robust z-score: -0.56
- nuclear/cytoplasmic p65 ratio, rep 1: 1.52
- nuclear/cytoplasmic p65 ratio, rep 2: 1.54
- low cell count flag: enough cells to score

D130012P04Rik (RIKEN cDNA D130012P04 gene)
- p65 translocation robust z-score: 0.41
- nuclear/cytoplasmic p65 ratio, rep 1: 1.73
- nuclear/cytoplasmic p65 ratio, rep 2: 1.75
- low cell count flag: enough cells to score

Obox5 (oocyte specific homeobox 5)
- p65 translocation robust z-score: 0.4
- nuclear/cytoplasmic p65 ratio, rep 1: 1.8
- nuclear/cytoplasmic p65 ratio, rep 2: 1.57
- low cell count flag: enough cells to score

Ino80b (INO80 complex subunit B)
- nuclear/cytoplasmic p65 ratio, rep 1: 1.26
- nuclear/cytoplasmic p65 ratio, rep 2: 1.15
- low cell count flag: fewer than 50 cells per well; well left out of scoring
